Construct, isoform or probe ends are uncertain for at least one entry. Where cells or extracts were used, other partners may take part. For part of these data: A negative result means that nothing was seen under these conditions. For part of these data: At least one verdict was read from the data and is not stated in words by the source.
Tests used:
[1] = system: RAG1 (endogenous, U87 extract) + RAG2 (endogenous, U87 extract); assay: pull-down; details: U87 cell-free extract, immunoblot, pull-down: 1X PBS, 10 mM NaCl, protease inhibitors, 0.5 mM PMSF, 2 h 4 C, protein in an extract
[2] = system: RAG1 (endogenous, Nalm6 extract) + RAG2 (endogenous, Nalm6 extract); assay: pull-down; details: Nalm6 cell-free extract, immunoblot; pull-down: 1X PBS, 10 mM NaCl, protease inhibitors, 0.5 mM PMSF, 2 h 4 C; protein in an extract; label: 5'-biotin on AKN1

| Sequence | binding result ([1]; label: 5'-biotin on MS20) | binding result ([1]; label: 5'-biotin on AKN1) | binding result [2] |
| --- | --- | --- | --- |
| TTTTTTTTTTGACCATTGGCGATCTCAGCGTACGGACGACTTCGGATGACTTTTTTTTTT / GTCATCCGAAGTCGTCCGTACGCTGAGATCGCCAATGGTC [biotinylated MS20/MS21 control] | no binding | – | – |
| GATCAGCTGATAGCTACCACAGTGCTACAGACTGGAACAAAAACCCTGCT / TAGCAGGGTTTTTGTTCCAGTCTGTAGCACTGTGGTAGCTATCAGCTGAT [biotinylated 12RSS (AKN1/AKN2)] | – | binds | binds |

Reference: PMC12682277
